# Laboratory results as given in PubChem BioAssay AID2685 (National Center for Advancing Translational Sciences (NCATS), 2010).
# The other results are listed elsewhere or left out. These are further read-outs of the screen, such as a control signal, another cell line or another target. No call is given for them. The list favours compounds with an active or inconclusive main result. The note in brackets gives the kind of curve behind each potency; many fits are weak.
# Assay: qHTS Assay for Lipid Storage Modulators in Drosophila S3 Cells;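 as to cell number change: cells counted by Cell Tracker Red CMTPX staining in the red channel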
# Settings: BODIPY lipid droplet fluorescence, 18-24 h; for cell number change: measured here: cell count max response, cells fed with added oleic acid
# Procedure, shortened: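 Drosophila S3 cells loaded with oleic acid (400 uM, as added) and compounds at several concentrations; lipid droplets imaged by 488-nm laser-scanning cytometry, 500–530 nm intensity and object ratio to cell channel. Percent activity normalized to 20 uM Triacsin C.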
# [1] = measured here: lipid fluorescence (Fed channel) AC50, cells fed with added oleic acid
# [2] = measured here: cell number channel AC50, cells fed with added oleic acid
smiles,measurement,setting,value
CC(Sc1ncn[nH]1)C(=O)Nc1cc(C(F)(F)F)ccc1Cl (centres undefined),cell number change,,-24.5%
same,AC50,[1],"0.058 µM [falling, full curve, poor fit]"
CCC(Sc1nc(-c2ccccc2)c(-c2ccccc2)[nH]1)C(=O)O (centres undefined),cell number change,,14.9%
same,AC50,[2],"1.03 µM [rising, full curve, poor fit]"
CN1CCN(NC(=S)Nc2ccc(OC(F)F)cc2)CC1,AC50,[1],"0.58 µM [falling, single point]"
Cc1ccc(C(=O)Cn2nnc(-c3cccs3)n2)cc1,cell number change,,16.1%
same,AC50,[1],"16.4 µM [rising, single point]"
CN1CCN(NC(=O)c2cccc3ccccc23)CC1,cell number change,,45.6%
same,AC50,[2],"4.61 µM [rising, full curve]"
same,AC50,[1],"16.4 µM [rising, single point]"
CC(=O)Nc1ccc(S(=O)(=O)NCC(=O)OCc2cc(=O)oc3ccc4ccccc4c23)cc1,cell number change,,6.74%
same,AC50,[1],"0.651 µM [rising, partial curve]"
Cc1ccc(C2c3c(oc4ccccc4c3=O)C(=O)N2c2nnc(C(C)C)s2)o1 (centres undefined),cell number change,,-38.8%
same,AC50,[2],"0.326 µM [falling, full curve, poor fit]"
O=C(CCC(=O)N1CCOCC1)NCc1cccc(C(F)(F)F)c1,cell number change,,22.1%
same,AC50,[1],"2.31 µM [rising, single point]"
O=C(Nc1ccnn1C1CCN(Cc2cccc(O)c2)CC1)C1CCCC1,cell number change,,-12.4%
same,AC50,[1],"29.1 µM [falling, single point]"
O=C1C(Oc2ccccc2)C(c2cccs2)N1Cc1ccc2c(c1)OCO2 (centres undefined),AC50,[1],"0.82 µM [rising, single point]"
COc1cc(COCC(O)CN2CCc3ccccc3C2)cc(OC)c1OC (centres undefined),AC50,[2],"1.03 µM [falling, full curve, poor fit]"
Cc1ccc(CONC(=O)c2ccccc2Cl)cc1,cell number change,,-14.1%
same,AC50,[1],"14.6 µM [falling, single point]"
CCc1nonc1NC(=O)c1oc2ccc(Cl)cc2c1C,cell number change,,20.9%
CC(C)NS(=O)(=O)c1ccc(Oc2ncc(C(F)(F)F)cc2Cl)cc1,cell number change,,2.73%
same,AC50,[2],"0.731 µM [falling, full curve]"
same,AC50,[1],"5.8 µM [falling, single point]"
Cc1ccc(C(C)C)c(OCc2nn(CC(=O)c3ccc(Cl)cc3)c3[n+]2CCCCC3)c1,cell number change,,-70.3%
same,AC50,[2],"25.9 µM [falling, partial curve, poor fit]"
same,AC50,[1],"2.06 µM [falling, partial curve]"
O=C(CSc1ncnc2c1oc1ccccc12)N1CCc2ccccc2C1,cell number change,,4.56%
same,AC50,[2],"1.46 µM [rising, partial curve]"
same,AC50,[1],"2.31 µM [rising, partial curve]"
CC1Cc2cc(S(=O)(=O)NCc3ccccc3)ccc2N1C(=O)C1CCC1 (centres undefined),cell number change,,69.8%
same,AC50,[2],"29.1 µM [rising, single point]"
C=CCn1c(SCc2ccc(C(=O)O)cc2)nc2sc(C)c(C)c2c1=O,cell number change,,5.61%
same,AC50,[2],"6.51 µM [rising, single point]"
CCOC(=O)c1c(NC(=O)C2(C)Cc3ccccc3C(=O)O2)sc2c1CCCC2 (centres undefined),cell number change,,6.74%
same,AC50,[2],"6.51 µM [rising, single point]"
same,AC50,[1],"29.1 µM [rising, single point]"
COC(=O)COc1cccc(NC(=O)COc2ccccc2)c1,cell number change,,-94.5%
same,AC50,[2],"29.1 µM [falling, single point]"
COc1ccc(C(=O)O)cc1S(=O)(=O)Nc1ccc(Oc2ccccc2)cc1,cell number change,,8.68%
same,AC50,[1],"0.731 µM [falling, single point]"
CC1=C(C(=O)OC(C)C)C(c2coc3ccccc3c2=O)C2=C(CCCC2=O)N1 (centres undefined),cell number change,,-8.01%
same,AC50,[1],"6.51 µM [rising, partial curve]"
CC(C(=O)NC1CCCCC1)N(Cc1ccccc1)C(=O)c1snc(C(N)=O)c1N (centres undefined),cell number change,,6.09%
same,AC50,[1],"0.58 µM [falling, single point]"
Cn1cc(CN2CCC(n3nccc3NC(=O)CCCc3ccccc3)CC2)cn1,cell number change,,-14.7%
same,AC50,[2],"0.116 µM [falling, full curve, poor fit]"
same,AC50,[1],"29.1 µM [rising, single point]"
CCN(CC)CCN(C(=O)c1ccc2ccccc2c1)c1nc2cc3c(cc2s1)OCO3,cell number change,,29.7%
same,AC50,[1],"1.46 µM [rising, partial curve, poor fit]"
CCC(=O)c1c[nH]c(C(=O)NCc2cccnc2)c1,cell number change,,-36.8%
same,AC50,[2],"7.31 µM [falling, partial curve]"
same,AC50,[1],"13 µM [falling, partial curve]"
COc1ccc(CNc2nc3c(c(=O)[nH]c(=O)n3C)n2CCCc2ccccc2)cc1,cell number change,,4.37%
same,AC50,[2],"0.411 µM [rising, full curve, poor fit]"
same,AC50,[1],"0.731 µM [rising, full curve, poor fit]"
COc1ccc(NC(=O)N2CCN(S(C)(=O)=O)CC2)cc1,cell number change,,-37.8%
same,AC50,[2],"35.5 µM [falling, single point]"
Cc1ccc(C(=O)Nc2ccc3c(c2)OCO3)cc1S(=O)(=O)N1CCOCC1,cell number change,,10.2%
same,AC50,[1],"1.64 µM [rising, full curve]"
O=C(CC12CC3CC(CC(C3)C1)C2)Nc1ccc2c(c1)COC2=O,cell number change,,-23.6%
same,AC50,[1],"29.1 µM [falling, single point]"
O=C(Nc1ccnn1C1CCN(Cc2cccc(OCCO)c2)CC1)C1CCOC1 (centres undefined),cell number change,,14.6%
same,AC50,[1],"29.1 µM [rising, single point]"
CC1=C(C(N)=O)C(c2ccccn2)n2nc(SCc3ccccc3)nc2N1 (centres undefined),cell number change,,14.5%
same,AC50,[1],"0.058 µM [rising, full curve, poor fit]"
CCOC(=O)c1ccc(NC(=S)N(CCCN2CCCC(C)C2)Cc2cccs2)cc1 (centres undefined),cell number change,,56.3%
same,AC50,[2],"6.51 µM [rising, single point]"
same,AC50,[1],"0.116 µM [falling, full curve, poor fit]"
Cc1cc(C)nc(NC(=O)/C=C/c2ccc(Cl)cc2Cl)c1,cell number change,,-39.4%
same,AC50,[2],"32.6 µM [falling, partial curve, poor fit]"
Cc1ccccc1NS(=O)(=O)c1ccc(NC(=O)c2ccco2)cc1,AC50,[2],"6.51 µM [rising, single point]"
same,AC50,[1],"0.291 µM [rising, full curve]"
CS(=O)(=O)N(CC(=O)N1CCCCC1)C1CCCCC1,cell number change,,-31%
same,AC50,[2],"7.31 µM [falling, single point]"
same,AC50,[1],"6.51 µM [falling, single point]"
S=C(NCCSCc1c(Cl)cccc1Cl)Nc1ccccc1,cell number change,,3.86%
CCn1nc(C(=O)N2CCN(Cc3nc4ccccc4s3)CC2)c2ccccc2c1=O,cell number change,,-16.5%
same,AC50,[1],"0.82 µM [falling, full curve, poor fit]"
O=[N+]([O-])c1ccc(N2CCN(S(=O)(=O)c3ccc4ccccc4c3)CC2)cc1NCc1ccco1,AC50,[2],"0.92 µM [rising, partial curve]"
same,AC50,[1],"6.51 µM [rising, single point]"
Cc1cc(C)nc(N2CCCC(C(=O)Nc3nc4ccc(S(C)(=O)=O)cc4s3)C2)n1 (centres undefined),AC50,[2],"6.51 µM [rising, single point]"
COc1ccc(-n2nc(C(=O)NCC(=O)N3CCCCCC3)c3ccccc3c2=O)cc1OC,cell number change,,-0.794%
same,AC50,[1],"29.1 µM [falling, single point]"
COc1ccc(NC(=O)c2sc3ncn(CC(=O)N4CCN(c5ccccn5)CC4)c(=O)c3c2C)c(OC)c1,cell number change,,-22.4%
same,AC50,[1],"20.6 µM [rising, partial curve]"
O=C(Nc1ccccc1C(F)(F)F)c1cc2ncc(CCCl)cn2n1,cell number change,,-4.71%
same,AC50,[1],"3.26 µM [rising, partial curve]"
O=C(Nc1ccc(Cl)cc1)Nc1nnc(CSc2ccc(Cl)cc2)s1,cell number change,,15.5%
same,AC50,[1],"0.461 µM [rising, full curve, poor fit]"
COc1ccc(N2CCCn3c2nc2c3c(=O)n(Cc3ccccc3F)c(=O)n2C)cc1,cell number change,,18.5%
same,AC50,[1],"1.03 µM [rising, full curve, poor fit]"
COc1ccccc1NC(=S)NCc1cccnc1,cell number change,,47.1%
same,AC50,[2],"20.6 µM [rising, single point]"
same,AC50,[1],"29.1 µM [rising, partial curve]"
Cc1nc2cc(-c3cccc(F)c3)nn2c(N2CCN(C(=O)c3ccco3)CC2)c1C,AC50,[2],"6.51 µM [rising, single point]"
same,AC50,[1],"6.51 µM [rising, single point]"
CCN(C(=O)COc1cc(OC)ccc1C(C)=O)C1CCS(=O)(=O)C1 (centres undefined),cell number change,,26.5%
same,AC50,[1],"1.84 µM [falling, full curve, poor fit]"
CCN(CC)CCCN1C(=O)C2C(C(=O)Nc3ccc(C(C)C)cc3)C3C=CC2(O3)C1C(=O)NC1CCCCC1 (centres undefined),AC50,[1],"25.9 µM [falling, partial curve]"
CN(Cc1ccccc1)c1ncnc2sccc12,cell number change,,-39%
same,AC50,[2],"29.1 µM [falling, single point]"
Cc1nc(CSc2ccc(Cl)cc2)cc(N2CCOCC2)n1,cell number change,,4.58%
same,AC50,[1],"5.17 µM [rising, partial curve]"
O=C(CSc1nc(C(F)(F)F)cc(=O)[nH]1)N1CCC(Cc2ccccc2)CC1,cell number change,,7.39%
same,AC50,[2],"0.651 µM [falling, single point]"
same,AC50,[1],"0.517 µM [falling, full curve]"
CCOC(=O)/C(C(=Nc1ccccc1)Nc1ccccc1)=C(\C)O,cell number change,,0.246%
same,AC50,[1],"0.411 µM [rising, full curve, poor fit]"
COc1ccc(CC(=O)c2ccc(OC)c(OC)c2C)cc1OC,cell number change,,31.6%
same,AC50,[2],"14.6 µM [rising, single point]"
same,AC50,[1],"29.1 µM [rising, single point]"

# Seven consecutive records already listed, for reference:
smiles,measurement,setting,value
COC(=O)COc1cccc(NC(=O)COc2ccccc2)c1,AC50,[2],"29.1 µM [falling, single point]"
COc1ccc(C(=O)O)cc1S(=O)(=O)Nc1ccc(Oc2ccccc2)cc1,cell number change,,8.68%
same,AC50,[1],"0.731 µM [falling, single point]"
CC1=C(C(=O)OC(C)C)C(c2coc3ccccc3c2=O)C2=C(CCCC2=O)N1 (centres undefined),cell number change,,-8.01%
same,AC50,[1],"6.51 µM [rising, partial curve]"
CC(C(=O)NC1CCCCC1)N(Cc1ccccc1)C(=O)c1snc(C(N)=O)c1N (centres undefined),cell number change,,6.09%
same,AC50,[1],"0.58 µM [falling, single point]"
